{"source": "paper PMC3408500", "about": "“Development of a High-Throughput Assay for Identifying Inhibitors of TBK1 and IKKε” (PLoS ONE, 2012)", "type_in_all_cases": "biochemical", "conditions_in_all_cases": "compound at 10 µM, after 2 hours (at completion of the assay); LOPAC set", "key": {"[1]": {"molecular_target": "T1, TBK1 (Homo sapiens, UniProt Q9UHD2)", "T1 construct": "purchased Life Technologies (Invitrogen)", "T1 sequence (Q9UHD2 1-729)": "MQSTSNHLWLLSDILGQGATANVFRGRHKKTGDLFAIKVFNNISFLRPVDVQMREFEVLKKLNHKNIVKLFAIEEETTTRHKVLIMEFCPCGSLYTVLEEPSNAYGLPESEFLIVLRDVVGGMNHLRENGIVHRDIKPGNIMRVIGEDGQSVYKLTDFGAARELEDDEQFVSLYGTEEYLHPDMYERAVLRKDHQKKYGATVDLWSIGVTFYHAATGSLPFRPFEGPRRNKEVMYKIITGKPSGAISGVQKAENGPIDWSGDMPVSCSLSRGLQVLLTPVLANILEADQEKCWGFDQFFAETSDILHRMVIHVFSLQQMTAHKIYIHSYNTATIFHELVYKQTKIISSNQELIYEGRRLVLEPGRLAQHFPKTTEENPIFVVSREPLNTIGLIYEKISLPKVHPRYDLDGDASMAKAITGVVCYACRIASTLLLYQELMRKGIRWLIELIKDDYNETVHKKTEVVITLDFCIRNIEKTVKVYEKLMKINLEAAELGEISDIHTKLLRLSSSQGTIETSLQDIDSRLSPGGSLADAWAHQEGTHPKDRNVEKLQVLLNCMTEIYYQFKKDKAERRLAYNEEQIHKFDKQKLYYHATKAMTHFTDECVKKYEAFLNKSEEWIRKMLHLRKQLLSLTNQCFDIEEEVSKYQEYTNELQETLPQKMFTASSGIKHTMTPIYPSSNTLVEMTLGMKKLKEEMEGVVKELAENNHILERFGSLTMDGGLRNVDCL", "assay": "MCE (microfluidic capillary electrophoresis) kinase assay, phosphorylation of 5-FAM-TBK1-Tide by TBK1", "text": "(§1) This validated substrate specificity was then used to develop assays for TBK1 and IKKε which are compatible with HTS using microfluidic capillary electrophoresis (MCE). MCE operates on the principle that small fluorescently-labeled peptide substrates from ∼100 nanoliter sized aliquots of reaction samples are separable in a capillary channel etched in a quartz microfluidic chip ratio when a current is applied, [30]. This technique has been widely adopted as a gold standard assay in the profiling of small molecule inhibitors of kinases and can be tested in a high-throughput fashion, [32]. TBK1-Tide was synthesized with an N-terminal 5– Carboxyfluorescein (5-FAM) dye for use as a substrate. The TBK1-Tide synthesized for HTS (5-FAM-Aha-ADADYASLDWDA-NH2) retained all of the residues critical for phosphorylation by TBK1 and IKKε, but had the -1 and -4 Asp residues changed to Ala in order to decrease the likelihood of Asp isomerization. […] Because of the MCE system’s limits of detection, TBK1-Tide was fixed at a concentration of 1 µM and Km values for substrate were not determined. The enzyme concentrations were then titrated and fixed to 120 nM for TBK1 and 81 nM for IKKε. These values were chosen to give 30% conversion of substrate to product after 2 hours of incubation (data not shown).\n(§2) Compounds were screened at a final concentration of 10 µM in 0.1% DMSO. […]"}, "[2]": {"molecular_target": "T2, IKKε (Homo sapiens, UniProt Q14164)", "T2 construct": "purchased Life Technologies (Invitrogen)", "T2 sequence (Q14164 1-716)": "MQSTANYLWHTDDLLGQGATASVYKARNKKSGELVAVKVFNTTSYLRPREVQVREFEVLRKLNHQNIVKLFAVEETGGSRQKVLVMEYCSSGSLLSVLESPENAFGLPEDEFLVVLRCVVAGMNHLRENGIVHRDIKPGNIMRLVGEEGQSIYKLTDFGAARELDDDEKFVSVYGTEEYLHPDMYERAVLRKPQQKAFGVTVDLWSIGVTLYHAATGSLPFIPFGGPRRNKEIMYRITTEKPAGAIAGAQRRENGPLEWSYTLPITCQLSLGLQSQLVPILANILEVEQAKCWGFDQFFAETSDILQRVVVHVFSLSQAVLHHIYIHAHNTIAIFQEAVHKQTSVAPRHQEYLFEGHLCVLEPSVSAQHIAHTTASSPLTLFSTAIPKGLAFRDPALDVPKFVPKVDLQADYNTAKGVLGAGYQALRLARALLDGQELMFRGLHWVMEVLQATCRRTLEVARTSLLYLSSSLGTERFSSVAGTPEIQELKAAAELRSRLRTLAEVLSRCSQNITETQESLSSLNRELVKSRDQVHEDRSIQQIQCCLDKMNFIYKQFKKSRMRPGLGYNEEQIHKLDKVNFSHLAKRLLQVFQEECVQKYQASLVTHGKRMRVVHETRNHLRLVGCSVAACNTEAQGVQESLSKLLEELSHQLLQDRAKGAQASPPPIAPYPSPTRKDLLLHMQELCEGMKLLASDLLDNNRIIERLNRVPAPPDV", "assay": "MCE kinase assay, phosphorylation of 5-FAM-TBK1-Tide by IKKε", "text": "as §1, §2"}, "[3]": {"molecular_target": "T3, IKKα (Homo sapiens, UniProt O15111)", "T3 construct": "purchased Life Technologies (Invitrogen)", "T3 sequence (O15111 1-745)": "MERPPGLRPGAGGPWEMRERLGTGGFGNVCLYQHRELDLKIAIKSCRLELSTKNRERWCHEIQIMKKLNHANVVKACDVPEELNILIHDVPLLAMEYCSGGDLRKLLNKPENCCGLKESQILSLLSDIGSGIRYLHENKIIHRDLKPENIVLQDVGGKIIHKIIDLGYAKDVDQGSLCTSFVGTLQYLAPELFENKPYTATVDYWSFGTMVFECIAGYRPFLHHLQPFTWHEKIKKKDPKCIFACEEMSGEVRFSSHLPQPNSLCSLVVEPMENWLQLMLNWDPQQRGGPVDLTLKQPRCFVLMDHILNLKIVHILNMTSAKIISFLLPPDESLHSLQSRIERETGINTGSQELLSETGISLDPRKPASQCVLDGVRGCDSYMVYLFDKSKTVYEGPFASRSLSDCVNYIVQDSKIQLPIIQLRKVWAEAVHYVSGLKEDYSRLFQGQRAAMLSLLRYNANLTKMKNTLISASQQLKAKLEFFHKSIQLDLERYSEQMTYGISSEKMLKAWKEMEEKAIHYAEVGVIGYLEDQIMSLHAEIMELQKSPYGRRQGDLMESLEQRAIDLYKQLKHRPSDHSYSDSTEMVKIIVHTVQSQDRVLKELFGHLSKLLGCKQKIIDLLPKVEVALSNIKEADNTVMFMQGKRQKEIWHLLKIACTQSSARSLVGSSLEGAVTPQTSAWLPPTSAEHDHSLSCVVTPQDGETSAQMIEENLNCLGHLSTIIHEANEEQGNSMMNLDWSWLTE", "assay": "MCE kinase assay, phosphorylation of FL-1 peptide by IKKα (secondary screen)", "method": "As IKKβ and IKKα are closely related to TBK1 and IKKε, it was important to determine the specificity of any candidate inhibitors. A secondary screen was therefore performed to evaluate the ability of the top-scoring TBK1 and IKKε inhibitors to inhibit the canonical IKKs. […] Enzyme concentrations were titrated and fixed to 11.5 µM for IKKα and 1.1 µM for IKKβ and the screen was performed as described above for TBK1 and IKKε. […]\nKinase buffer contained 50 mM Tris (pH 7.5), 12 mM MgCl2, 1 mM β-glycerophosphate, 100 µM ATP, and 10 µCi γ-^32P-ATP/reaction. Reactions were incubated at 30°C for 1h. Recombinant GST-TBK1 and GST-TBK1 K38A used in the positional scanning peptide library assay were generated as described above and the assay was performed as described previously, [28]. […]"}}, "data": [{"smiles": "O=C1NC(=O)C(c2ccccc2[N+](=O)[O-])=C1Nc1ccc(O)c(Cl)c1", "note": "[UNC10100541, SB 415286]", "values": [{"measurement": "percent inhibition of TBK1", "setting": "[1]", "result": 91.5, "unit": "%"}, {"measurement": "percent inhibition of IKKε", "setting": "[2]", "result": 86, "unit": "%"}, {"measurement": "percent inhibition of IKKα", "setting": "[3]", "result": 12.5, "unit": "%"}]}]}
